Experimental data reported in PubChem BioAssay AID2685 (National Center for Advancing Translational Sciences (NCATS), 2010).
Screen size: about 320,000 compounds; about 2,100 (0.66%) were called active. The inconclusive results got no clear call from the source; some entries with a clear call stand among them for comparison. Calls follow the shape of the dose curve; as a rule, active = well fitted inhibition curve with a large enough effect in the signal ratio, with a control signal flat (not every such curve was filed as active); inconclusive = small, poorly fitted or top-dose-only effect, or effect the other way, or a change in a side signal; inactive = flat fitted curve, though single readings scatter; the % refers to the signal ratio. Where the call is inconclusive, the potency comes from a doubtful curve fit.

Test: qHTS Assay for Lipid Storage Modulators in Drosophila S3 Cells
Details: BODIPY lipid droplet fluorescence, 18-24 h, cells fed with added oleic acid; lipid storage change, negative = inhibition: at 46.1 µM (top of the series) unless noted
Summary of the method: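 Laser-scanning cytometry quantifies lipid droplet accumulation (500–530 nm total intensity; droplet/cell object ratio) in oleic acid-fed (400 uM added) Drosophila S3 cells treated with a concentration series. 20 uM Triacsin C defined 100% inhibition.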
% is scaled to controls: 0 for no effect and ±100 for the full control effect; potency is read from the fitted curve at half-maximal effect.

Lipid storage change, negative = inhibition, inconclusive:
Cc1cc(SCC(=O)N/N=C/c2ccc(O)c(O)c2)nc2ccccc12 -21%
CCN(CC)CC(O)CN(c1ccccc1)S(=O)(=O)c1ccc2ccccc2c1 (stereo not drawn) -16.9%
C(#CCN1CCCC1)CC(c1ccccc1)c1ccccc1 7.72%
CN(CC(=O)NCC1CCCO1)S(=O)(=O)c1ccc(Br)cc1 (stereo not drawn) -34%
N#C/C(=C\c1ccc(OCc2cccc(C(=O)O)c2)cc1)C(=O)NCc1ccco1 19.8%
CC(CCc1ccccc1)NC(=O)c1ccccc1Cl (stereo not drawn) 21.3%
COc1ccccc1N(C(=O)c1ccco1)C(C(=O)NC1CCCC1)c1ccncc1 (stereo not drawn) 110%
Cc1ccc(F)c([C@H]2C3C=CCC(c4ccccc4)C3C(=O)N2Cc2ccccc2)c1 (stereo partly drawn) -7.48%
O=C(c1cc(F)c(F)cc1Cl)N1CCN(c2ccc([N+](=O)[O-])c3ncccc23)CC1 -6.36%
CCC(=O)Nc1cccc(C2=NOC3(C2)C[C@@H](C(N)=O)N(C(=O)CC(c2ccccc2)c2ccccc2)C3)c1 (stereo partly drawn) 12.7%
Cc1cc(NC(=O)CCC(=O)N(c2ccccc2)C(C(=O)NC2CCCC2)c2ccncc2)no1 (stereo not drawn) 7.31%
COC(=O)c1ccc(C)c(NC(=O)c2ccc(Cn3cc([N+](=O)[O-])cn3)o2)c1 24.1%
O=C(CCCc1nc2ccccc2s1)NCc1ccccc1F 19.1%
COc1ccc(N2CCN(C(CNC(=O)C(=O)NCC3CCCO3)c3ccco3)CC2)cc1 (stereo not drawn) 29.7%
CCN(CCn1cccn1)C(=O)c1cccc(OC2CCN(S(C)(=O)=O)CC2)c1 -0.728%
COc1ccc(CNC(=O)CCS(=O)(=O)c2ccc3c(c2)NC(=O)CS3)cc1 54%
CCn1cc(C2=NOC(C(=O)Nc3cccc(C(C)=O)c3)C2)c(C)n1 (stereo not drawn) -31.2%
COc1ccc(C2c3ccc(O)cc3Oc3ncn(CCCO)c(=N)c32)cc1 (stereo not drawn) 20.8%
O=S(=O)(Nc1cccnc1Cl)c1ccc2c(c1)OCCO2 1.54%
N#Cc1nc(COc2ccccc2)oc1N1CCCCC1 18.7% [at 9.22 µM]
CC(=O)c1ccc2c(c1)C1C=CCC1C(c1ccc(S(=O)(=O)N3CCOCC3)cc1)N2 (stereo not drawn) 8.95%
O=C(CN1CCSC1=O)Nc1ccc(N2CCOCC2)cc1
Cc1ccc(/C=C(\NC(=O)c2ccccc2)C(=O)NCCN2CCOCC2)o1 30.6%
Cc1ccccc1Oc1ncnc2sccc12 20%
CCOC(=O)c1c(NC(=O)c2ccc(S(=O)(=O)N3CCOCC3)cc2)sc2c1CCN(C)C2 240%
O=C(CN1CCCCCC1)N/N=C/c1cccc(Cl)c1Cl -35.4%
O=C(Cc1ccc(Cl)cc1)NCCS(=O)(=O)N1CCN(c2ccccc2F)CC1 34.6%
CCOc1cc(C(C(=O)NCC2CCCO2)N(C(=O)Cn2nnc3ccccc32)c2cccc(OC)c2)ccc1O (stereo not drawn) 52.3%
O=C(CSc1nc(-c2ccc(F)cc2)cs1)N1CCN(C(=O)c2ccco2)CC1 -9.24%
Cc1ccc(S(=O)(=O)Cn2nnnc2C(C(C)C)N2CCC(O)CC2)cc1 (stereo not drawn) 17.1%
COc1cccc(C(=O)NCc2ccco2)c1OC -2.87%
COc1ccc(OCC(=O)N2c3ccccc3CCc3ccccc32)cc1 1.16%
CCOC(=O)c1c(/N=C/C2=C(O)CC(C)(C)CC2=O)sc2c1CCCC2 5.49%
O=C(COc1cccc(-n2cnnn2)c1)Nc1ccc([N+](=O)[O-])cc1 -11.6%
CCN(CC)S(=O)(=O)c1ccc(N2CC(C(=O)NCCc3c[nH]c4ccccc34)CC2=O)cc1 (stereo not drawn)
O=C(NC1CCCCC1)N(Cc1ccccc1)Cc1ccco1 10.1%
CN(C)C(=O)c1ccc(NC(=O)CSc2nc3ccccc3[nH]2)cc1 43.9%
Cc1cccc(-c2nnc(SCC(=O)C(C)(C)C)n2C)c1 -20.3%
O=C(OCC(=O)N1CCOCC1)c1ccc(F)cc1Cl 62%
COC(=O)c1cc(OC)c(OC)cc1-n1cnc2cc(OC)c(OC)cc2c1=O 11.7%
O=C(Nc1nccs1)c1ccc(S(=O)(=O)NCC2CCCCC2)cc1 34.7%
CCOc1ccc(N(CC(=O)N/N=C(\C)c2cccc(NC(C)=O)c2)S(=O)(=O)c2ccccc2)cc1 3.26%
CN(Cc1ccc(Cl)cc1)C(=O)c1ccc2ccccc2n1 36.8%
COc1ccc(N2CCN(C(c3ccc4ncccc4c3)c3nnnn3C(C)(C)C)CC2)cc1 (stereo not drawn) 0.136%
COc1ccc(S(=O)(=O)Nc2ccccc2-c2nc3ccccc3[nH]c2=O)cc1 24.5%
CC(C)c1ccc(-c2noc(C3CCCN(S(C)(=O)=O)C3)n2)cc1 (stereo not drawn) 110%
O=C(CSCc1cccc(Br)c1)N1CCOCC1 -15.2%
CCC(C)c1ccc(O)c(NC(=S)NC(=O)c2cccnc2)c1 (stereo not drawn) -11.1%
CCCCCCN(C(=O)CCCCCN1C(=O)NC(c2ccc(Cl)cc2)C(C(=O)OCc2ccccc2)=C1C)C(C(=O)NCCCC)c1ccc(OCC(=O)OC)c(C(=O)OC)c1 (stereo not drawn) 23.7%
CCCCOc1ccc(N2C(=O)CC(N(CCc3ccccc3)C(=O)/C=C/C(=O)O)C2=O)cc1 (stereo not drawn) 4.48%
O=C(CSc1oc(-c2ccco2)nc1S(=O)(=O)c1ccc(F)cc1)NCC1CCCO1 (stereo not drawn) -24.8%
CCCCN(C(=O)CC1CCCC1)c1c(N)n(CC(C)C)c(=O)[nH]c1=O 12.9%
Cc1ccc(C)c(NC(=O)C2CC(=O)N(C(C)C)C2)c1 (stereo not drawn) 21.5%
CCOc1ccc(OCC)c(S(=O)(=O)N2CCCCC2)c1 51.3%
CCN(CC(=O)NCc1ccc(F)cc1)C(=O)c1ccc(Cl)cc1 17%
O=C(NCCN1CCOCC1)c1cc([N+](=O)[O-])ccc1Cl 58.9%
COc1cccc(C2C(C(=O)c3cccs3)=C(O)C(=O)N2CCN2CCOCC2)c1OC (stereo not drawn) -100%
Cc1cc(C)n2nc(-c3ccccc3)c(-c3ccccc3)c2n1 -65.6%

Of the compounds above, these contain a cyano group:
Lipid storage change, negative = inhibition, inconclusive:
N#C/C(=C\c1ccc(OCc2cccc(C(=O)O)c2)cc1)C(=O)NCc1ccco1 19.8%
N#Cc1nc(COc2ccccc2)oc1N1CCCCC1 18.7% [at 9.22 µM]

Following part:

Lipid storage change, negative = inhibition, inactive:
CN(C)c1ccc(C(=S)N2CCN(Cc3ccccc3)CC2)cc1
CC(=O)N1CCc2cc(Br)cc(S(=O)(=O)NCCCN3CCC(C)CC3)c21

Potency, inconclusive:
C=CCn1c(SCC(=O)Nc2ccc(OC)cc2)nnc1-c1cnccn1 20.6 µM [activator, single point]
COc1ccc(Cl)cc1C(=O)Nc1ccc2c(c1)OCCO2 25.9 µM [falling, single point]
CCOC(=O)C1=NN(C(=O)c2ccco2)C2(CC2)C1 18.4 µM [activator, single point]
Cc1[nH]n(-c2ccccc2)c(=O)c1Sc1ccc(Cl)cc1 29.1 µM [falling, single point]
Cc1cccc(C)c1NC(=O)CNC(=O)C1COc2ccccc2O1 (stereo not drawn) 6.51 µM [activator, single point]
c1cncc(CNc2ncnc3ccc(-c4ccoc4)cc23)c1 36.6 µM [rising, partial curve, poor fit]
CN1CCN(c2ccc(NC(=O)C(C)(c3ccccc3)c3ccccc3)cc2)CC1 0.58 µM [falling, single point]
CCOC(=O)C1CCN(C(=O)Cn2nc(C)n3cccc3c2=O)CC1 29.1 µM [activator, single point]
CC(=O)NC(Cc1ccccc1F)C(=O)NC1CCN(C(=O)c2cnccn2)CC1 (stereo not drawn) 1.16 µM [activator, full curve]
Cc1c(Cl)cccc1NC(=O)CN(C1CCCCC1)S(C)(=O)=O 23.1 µM [activator, single point]
COc1ccccc1NC(=O)c1sc2nc(-c3ccco3)ccc2c1N 1.3 µM [activator, partial curve]
O=C1CC[C@H](OCc2ccccc2)CCN1[C@H](CSc1ccccc1)Cc1ccccc1 4.11 µM [falling, full curve]
COC(=O)Cn1cnc2c(nnn2-c2ccc(F)cc2)c1=O 0.0651 µM [activator, full curve]
O=C1CCCC(O)=C1C=Nc1ccc2c(c1)oc1ccccc12 1.16 µM [activator, full curve, poor fit]
COc1ccc(NC(=O)N(Cc2cc3cc(C)ccc3[nH]c2=O)CC2CCCO2)cc1 (stereo not drawn) 1.03 µM [activator, partial curve, poor fit]
O=C(CNC(c1ccccc1)c1ccccc1)Nc1ccccc1-c1ccccc1 18.4 µM [falling, single point]
CCCNc1ccc(S(=O)(=O)N(C(C)C)C(C)C)cn1 7.31 µM [activator, partial curve]
CCOc1ccc2[nH]cc(C(=O)NCc3ccccc3)c(=O)c2c1 29.1 µM [falling, single point]

4 structures from above, ordered by count of non-hydrogen atoms, high to low:
Potency, inconclusive:
CC(=O)NC(Cc1ccccc1F)C(=O)NC1CCN(C(=O)c2cnccn2)CC1 (stereo not drawn) 1.16 µM [activator, full curve]
CCOC(=O)C1CCN(C(=O)Cn2nc(C)n3cccc3c2=O)CC1 29.1 µM [activator, single point]
COC(=O)Cn1cnc2c(nnn2-c2ccc(F)cc2)c1=O 0.0651 µM [activator, full curve]
CCOC(=O)C1=NN(C(=O)c2ccco2)C2(CC2)C1 18.4 µM [activator, single point]
